Experimental data from US20030022837A1 (Stanford University, published 2003).
Results are given in words; binding and its absence hold for the method and conditions named. For part of these data: Binding calls can cover weak binding; strength is not graded here. For part of these data: In cells and extracts the contact can be indirect. For part of these data: Where a sequence is shown, tags or fusion partners need not be part of it. One block for each binder: values may come before it.

Experiments:
Skp1 (yeast two-hybrid) [1] = test: yeast two-hybrid screen
Skp1 (yeast two-hybrid) [2] = test: yeast two-hybrid screen of a Xenopus oocyte library
[3] = biological target: Cdc20(1-158), in vitro translated; test: yeast two-hybrid
Cdc20 WD repeat domain [4] = test: yeast two-hybrid
[5] = biological target: Cdc20(1-158), in vitro translated; test: in vitro binding assay (GST pull-down of 35S-labeled IVT Cdc20(1-158))
Cdc20 WD repeat domain [6] = test: in vitro binding assay

- binding (Skp1 (yeast two-hybrid) [1]): binds
- binding (Skp1 (yeast two-hybrid) [2]): binds
- binding [3]: binds
- binding (Cdc20 WD repeat domain [4]): no binding
B1: Xenopus Emi1 (Early Mitotic Inhibitor 1), full-length wild type (other)
chain: MMCGFASNQSPKKLSSKKSSATNVHLEISPVKHHPPCKVYENVQGSCLDSAICTTVAKCADLTDDLPVHNKENLLHRLNDLETNSYEEYSALQDSGYSSILQNDSPCQDETDRKVSDIQVRETPKNFMSYQRPFHTLSKINLPILRFEEAVCSTLKKMRKTNKKIDWNAVDVVCGGNYGLEHLIGKSMGLERFDILAELFHRDFKHLLTKILRHLSAMDLINVISVSTTWRKLLQKDNWAYNAYKLGCKELCEKRAKVSSHTATRDESLCRVPLASVQKVAASSLCTSKKQSKNKNGGLSCNRLAEFIEVAQTLKNDQSLKVCVDCGSPAKHDPCLHRAICTRESCKLDFCTRCSCKYHFSKSCLMSKPGSYRIPSEPLPGSKKSKQNLRRL
notes: 392 residues; also called xEmi1; Emi1p

- binding [5]: binds
- binding (Cdc20 WD repeat domain [6]): no binding
B2: GST-Emi1 (Xenopus Emi1 fused to glutathione S-transferase) (protein, not shown: a dimerising Fc or GST)
chain: B1 chain
